# PubChem BioAssay AID1159584, Peter MacCallum Cancer Centre – 2016
# Test: 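Genes whose loss is lethal only together with E-cadherin loss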 (primary screen)
# System: human MCF10A breast epithelial cells, parental and CDH1-null
# Reagents: siRNA against human genes
# Detection: 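ATP luminescence (CellTiter-Glo) viability per line relative to mean mock wells over all plates, and the ratio of CDH1-null to parental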
# Scale: CDH1-null / parental viability ratio: higher = CDH1-null cells survive relatively better than parental; CDH1-null viability vs mock: higher = more viable CDH1-null cells
# Here is an unselected part of about 18,000 reagents tested. Further read-outs or replicates are left out here. Not stated in the record: the amount of reagent, the time to read-out.
Gene,CDH1-null / parental viability ratio,CDH1-null viability vs mock (fraction of mock)
NPFFR1,0.82,0.81
TRDN,1.25,0.7
SELENOT,1.02,0.44
ARPC4,0.99,0.97
SLC5A12,0.96,0.79
CDRT4,0.86,0.57
RWDD4,0.84,0.62
HCN1,1.11,0.8
PTPRS,1.19,0.74
ADAD1,0.89,0.85
RELL2,0.94,0.79
HOXA6,0.75,0.48
FDFT1,0.91,0.79
WWP1,1.06,0.85
ZNF513,0.94,0.45
MN1,1.11,0.52
OR1J4,0.67,0.68
LMOD1,1.27,0.94
ANP32D,0.96,0.74
ENO2,0.95,1
NDNF,0.98,0.78
RALY,1.05,0.88
PHRF1,0.97,0.6

Sorted by “CDH1-null / parental viability ratio” (highest first): some entries from above.
Gene,CDH1-null / parental viability ratio,CDH1-null viability vs mock (fraction of mock)
RALY,1.05,0.88
NDNF,0.98,0.78
ANP32D,0.96,0.74
ENO2,0.95,1

Additional entries follow:
Gene,CDH1-null / parental viability ratio,CDH1-null viability vs mock (fraction of mock)
SLC71A1,1.11,1.15
TMC1,1.21,0.92
MCOLN2,1.26,0.88
ST7L,0.9,0.45
ANLN,1.14,0.4
MAP3K6,1.06,1.08
NRG3,1.31,0.88
ZNF273,0.89,0.47
NT5M,1.5,0.84
GCNT1,0.9,0.88
ALS2,1,0.66
PKIA,1.15,0.46
CDK5RAP2,0.74,0.56
DR1,0.91,0.78
SOX8,1.11,0.8
XK,0.98,1.23
OR8B2,1.04,0.87
LGI3,0.73,0.48
TMED3,1.12,0.45
ZNF559,1.14,1.12
EGLN2,0.96,0.74
DAZ3,1.07,0.49
DNM1L,0.84,0.57
